The nature of the assay: IkB Signaling. To be noted: ABC-DLBCL IkBa-CBG/CBR dual luciferase ratio (green luciferase fused to IkBa over red control in OCI-Ly3 lymphoma cells), 4 h. The gist of the method: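 In this assay, an IκBα–CBG68 fusion accumulates when IKK-driven degradation is blocked; native CBR normalizes for cell number. OCI-Ly3 cells were treated 4 h with compound and doxycycline, then green and red light read after Chroma-Glo addition.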
The mark [1] stands for this setting: measured here: control luc red channel unless noted.
The mark [2] stands for this setting: measured here: IkB-luc green channel.
Setting [3] is: measured here: control luc red channel.

The structures appear in SMILES notation. The list shows a part of the results. Further columns of the screen follow, without active or inactive calls. The list favours compounds with an active or inconclusive main result. Potencies come from curve fits of mixed quality, noted in brackets.

For the compound `Cc1ccccc1Cc1c(C)nc2nc(SCC(=O)N(C)c3ccccc3)nn2c1C`, the AC50 under setting [1] is 31.6 µM [falling, single point].
As for `Cc1c(C(=O)N2CCC(C)CC2)c(S(=O)(=O)NCc2ccc(Cl)cc2)c(C)n1C`, under setting [1], the AC50 is 3.98 µM [falling, single point].
On the same count and under the same terms, as for `CN(c1ccc(F)cc1)S(=O)(=O)N1CCCC(C(=O)NCc2cccc(Br)c2)C1` (configuration not stated), the figure is 25.1 µM [falling, partial curve].
Same read-out and setting: as for `Cc1ccsc1C(=O)OCC(=O)c1cc(C)n(CC2CCCO2)c1C` (configuration not stated), the figure is 25.1 µM [falling, single point].
Take `CCN(CC)c1ccc2cc(-c3nc(-c4cccs4)no3)c(=O)oc2c1`: under setting [1], the AC50 was 0.158 µM [falling, full curve].
Take `COCCCNC(=O)CSc1nc2cc3c(cc2c(=O)n1CCCCCC(=O)NCc1ccc(OC)cc1)OCO3`: under setting [1], the concentration at half-maximal activity (AC50) is 1.26 µM [rising, full curve].
Take `Cc1ccc(NC(=O)c2cnc(SCC(=O)N3CCOCC3)n(C)c2=O)cc1C`: the AC50 is 39.8 µM [rising, single point] under setting [2] and 7.94 µM [falling, single point] under setting [3].
`CC1CCN(C(=O)c2ccc3c(c2)N(Cc2ccccc2)C(=O)c2ccccc2S3(=O)=O)CC1`: the half-maximal activity concentration (AC50) under setting [1] is 39.8 µM [falling, single point].
For `CCCc1cc(-c2n[nH]c(C)c2-c2ccc(C(=O)OCC)o2)c(O)cc1O`, the AC50 under setting [1] is 25.1 µM [falling, partial curve].
`COc1ccccc1-c1noc(-c2ccc(NCc3ccco3)c([N+](=O)[O-])c2)n1`: the AC50 under setting [1] was 0.316 µM [rising, full curve].
In the case of `CCn1c(=O)c(C(=O)Nn2c(C)nc3ccccc3c2=O)c(O)c2ccccc21`, the AC50 under setting [1] was 25.1 µM [falling, partial curve].
As for `Cc1cccc(N2CCN(C(=O)c3ccc4c(Cl)c5c(nc4c3)CCCC5)CC2C)c1` (configuration not stated), the AC50 under setting [1] was 20 µM [falling, partial curve].
As to `COc1ccc(NC(=O)c2cc3n(n2)C(C(F)(F)F)CC(c2ccc4c(c2)OCO4)N3)cc1OC` (configuration not stated), the AC50 under setting [1] was 12.6 µM [falling, partial curve].
Take `CN(C(=O)CSc1nc(C2CCCC2)nc2c1c(=O)n(C)c(=O)n2C)c1ccccc1`: under setting [1], the AC50 was 20 µM [falling, partial curve].
`Cc1cccc(C)c1OC(=O)CSc1nnc(CNC(=O)c2ccccc2)o1`: the concentration at half-maximal activity (AC50) under setting [1] is 0.316 µM [rising, full curve].
As for `O=C(Cn1ncc2c1-c1ccccc1OC2)N1CCN(Cc2ccc3c(c2)OCO3)CC1`, the AC50 under setting [1] was 12.6 µM [falling, partial curve].
Same read-out and setting: as for `COc1ccc2c(c1)c(CC(=O)Nc1ccc(C(C)=O)cc1)c(C)n2C(=O)c1ccc(Cl)cc1`, the figure is 3.16 µM [falling, full curve].
Regarding `COc1ccc(S(=O)(=O)NCCS(=O)(=O)N2CCN(c3ccccc3)CC2)cc1OC`, the AC50 under setting [1] is 0.0631 µM [falling, full curve, poor fit].
Regarding `Cc1ccc(NC(=O)c2oc3ccccc3c2NC(=O)c2ccc(F)c(F)c2)cc1`, the AC50 under setting [1] is 39.8 µM [falling, single point].
For `CCc1cccc(CC)c1NC(=O)C(Cc1ccccc1)NS(=O)(=O)c1cccc2nsnc12` (configuration not stated), the half-maximal activity concentration (AC50) under setting [1] was 12.6 µM [falling, partial curve].
In the case of `Cc1ccc(CNC(=O)CCCCCn2c(=O)c3sccc3n(CC(=O)Nc3ccc(C)c(F)c3)c2=O)cc1`, the AC50 under setting [1] was 1.26 µM [falling, full curve, poor fit].
In the case of `COc1cccc(C(=O)NC(=NCCc2c[nH]c3ccc(OC)cc23)Nc2nc(C)cc(C)n2)c1`, under setting [1], the AC50 was 5.01 µM [falling, full curve].
Still for that read-out and setting: as for `CCN1C(C(=O)c2ccccc2)=C(OC(=O)COc2ccc(OC)cc2)c2ccccc2S1(=O)=O`, the figure is 20 µM [falling, partial curve]; as for `O=C(Nc1ccc(-c2nc3ccccc3o2)c(O)c1)c1cc(-n2cnnc2)ccc1Cl`, 10 µM [falling, partial curve].
Consider `O=C(NCc1ccccc1Cl)c1cnc(N2CCOCC2)c2ccccc12`, for which the half-maximal activity concentration (AC50) under setting [1] was 39.8 µM [falling, single point].
Regarding `Cc1ccc2cccc(NC(=O)c3cccc4c(Cl)cccc34)c2n1`, the half-maximal activity concentration (AC50) under setting [1] was 31.6 µM [rising, single point].
On to `Cc1ccc(C)c(N2CCN(C(=O)CCNS(=O)(=O)c3ccc4c(c3)CCN4C(=O)C3CC3)CC2)c1`, for which the AC50 under setting [1] was 39.8 µM [falling, single point].
Take `COc1ccc(S(=O)(=O)N2CN(Cc3ccco3)c3nc4ccccc4nc32)cc1`: the half-maximal activity concentration (AC50) under setting [1] was 3.98 µM [falling, full curve].
Regarding `COc1ccc(Br)cc1C(=O)Nc1cccc(NC(=O)c2ccco2)c1`, the AC50 under setting [1] is 5.01 µM [falling, partial curve].
On to `Cc1ccc(C(=O)N2CCc3cc(CNC(=O)c4ccc(Br)cc4)ccc32)cc1`, for which the AC50 under setting [1] was 2.51 µM [falling, partial curve].
Same read-out and setting: for `FC(F)(F)c1cc(-c2ccccc2)nc(NCC2CCCO2)n1` (configuration not stated) the value was 20 µM [falling, partial curve]; for `COc1ccccc1C(=O)Nc1cccc(-c2cn3ccsc3n2)c1`, 20 µM [falling, partial curve].
For the compound `COc1ccc(S(=O)(=O)N2CCN(Cc3ccc4c(c3)OCO4)CC2)cc1C`, under setting [1], the AC50 was 7.94 µM [falling, partial curve].
With `CCOC(=O)c1cnc2c(Cl)cc(Cl)cc2c1Nc1cc(C(=O)O)ccc1C`, under setting [1], the AC50 was 12.6 µM [falling, partial curve].
As to `Cc1c(Cl)cccc1NC(=O)CNS(=O)(=O)c1cccs1`, under setting [1], the AC50 is 39.8 µM [rising, single point].
The same measure, in the same setting: as for `CCOc1ccc2c(c1)sc1nc(=O)n(-c3ccc(Cl)c(Cl)c3)c(=O)n12`, the figure is 39.8 µM [rising, single point] [measured here: IkB-luc green channel].
`Cc1ccc(OCc2nc(-c3ccc(C(=O)N4CCN(c5cccc(C(F)(F)F)c5)CC4)cc3)oc2C)cc1`: the AC50 under setting [1] was 20 µM [falling, partial curve].
On the same count and under the same terms, for `CCOC(=O)CCn1cnc2onc(-c3cc(OC)ccc3Cl)c2c1=O` the value was 31.6 µM [falling, single point]; for `COc1ccc(N(CC(C)C)S(=O)(=O)c2nnc(NC(=O)c3cccs3)s2)cc1`, 25.1 µM [falling, single point]; for `C/C=C/c1ccc(Oc2nnnn2-c2ccc(C(=O)O)cc2)c(OC)c1`, 31.6 µM [falling, partial curve].
The same measure, in the same setting: as for `Cc1cccc(-n2ncc(C(=O)N3CCN(Cc4ccccc4)CC3)c2C2CCN(C(=O)OC(C)(C)C)CC2)c1`, the figure is 12.6 µM [falling, partial curve]; as for `CCn1c(CNC(C)=O)nnc1SCC(=O)c1ccc(Br)cc1`, 39.8 µM [rising, single point] [measured here: IkB-luc green channel].
On to `CCOc1ccccc1NC(=O)N1c2ccccc2Sc2ccccc21`, for which the AC50 under setting [1] is 2.51 µM [rising, single point].
Regarding `O=C(Cn1ncn2nc(-c3cccs3)cc2c1=O)NCc1ccc(Cl)cc1`, the AC50 under setting [1] is 1 µM [rising, partial curve].
For `Cc1oc(-c2cccc(Cl)c2)nc1CN1CCCC(C(=O)NCCc2ccc(Cl)cc2)C1` (configuration not stated), under setting [1], the AC50 was 12.6 µM [falling, partial curve].
For `CC(C)CNC(=O)C(=O)Nc1c2c(nn1-c1ccccc1)CS(=O)(=O)C2`, under setting [1], the AC50 was 20 µM [rising, single point].
Take `O=C(Nc1ccc2c(c1)OCCO2)C1CCN(S(=O)(=O)c2ccc(Br)s2)CC1`: the AC50 under setting [1] is 12.6 µM [falling, partial curve].
On the same count and under the same terms, for `CC(=O)Nc1cc(C(=O)NCc2ccc(C)cc2)ccc1S(=O)(=O)c1ccc(Cl)cc1` the value was 25.1 µM [falling, single point]; for `CCOC(=O)CN1C(C(=O)c2ccccc2)=C(OC(=O)C(C)(C)C)c2ccccc2S1(=O)=O`, 31.6 µM [falling, single point].
With `Cc1cccc(-n2nnc(C(=O)NC3CCCc4ccccc43)c2N)c1` (configuration not stated), under setting [1], the AC50 is 6.31 µM [falling, partial curve].
With `Cc1ccc(OCC(=O)NCc2ccco2)cc1C`, under setting [1], the AC50 was 12.6 µM [falling, partial curve].
For `N#CC1=C(N)SC(N)=C(C#N)C1c1c(Cl)cccc1Cl`, the half-maximal activity concentration (AC50) under setting [1] is 25.1 µM [rising, partial curve] [measured here: IkB-luc green channel].
Turning to `Cc1cc(Br)ccc1NC(=O)C1CCCN(S(=O)(=O)c2cccc3nonc23)C1` (configuration not stated), the AC50 under setting [1] is 39.8 µM [falling, single point].
The same measure, in the same setting: for `Cc1ccc(CNC(=O)C2CCN(S(=O)(=O)c3cccc4nonc34)CC2)cc1` the value was 0.398 µM [rising, full curve].
As for `COc1ccccc1NC(=O)CSc1nnc(NC(=O)NC2CCCCC2)s1`, the AC50 under setting [1] was 31.6 µM [falling, single point].
Turning to `COc1ccccc1/C=C/c1nc(C#N)c(N2CCN(C)CC2)o1`, the AC50 under setting [1] is 7.94 µM [falling, partial curve].
Consider `COc1ccc(C(=O)N2CCC(c3nc4ccccc4s3)CC2)cc1Cl`, for which the AC50 under setting [1] was 20 µM [falling, partial curve].
As for `CC(=O)[C@H](CC(C)C)NC(=O)[C@@H](CC(C)C)NC(=O)[C@H](CC(C)C)NC(=O)OCc1ccccc1`, the AC50 is 1.58 µM [rising, full curve] under setting [2] and 1 µM [falling, full curve, poor fit] under setting [3].
With `CCc1ccc(NCc2cc3cc4c(cc3n(CC(=O)Nc3ccccc3OC)c2=O)OCCO4)cc1`, under setting [1], the AC50 is 7.94 µM [falling, partial curve].
In the case of `COc1cc(C(=O)Nc2ccc3c(c2)OCCO3)ccc1OC(F)F`, the half-maximal activity concentration (AC50) under setting [1] is 39.8 µM [falling, single point].

For orientation: AC50 means the midpoint of the concentration-response curve, whichever way the signal moves.

The values are drawn from PubChem BioAssay AID445 (National Center for Advancing Translational Sciences (NCATS), 2006).
